No constants are given. Whether binding was seen depends on the method and setting. In cells and extracts the contact can be indirect. Some results given as binding are weak or reduced against the parent protein; the word gives no strength. Where a sequence is shown, tags or fusion partners need not be part of it.

In the assay the target is T1, AFG2 Interacting Ribosome Maturation Factor (AIRIM), wild type, Flag-HA-tagged (human) (UniProt Q9NX04).
T1 sequence: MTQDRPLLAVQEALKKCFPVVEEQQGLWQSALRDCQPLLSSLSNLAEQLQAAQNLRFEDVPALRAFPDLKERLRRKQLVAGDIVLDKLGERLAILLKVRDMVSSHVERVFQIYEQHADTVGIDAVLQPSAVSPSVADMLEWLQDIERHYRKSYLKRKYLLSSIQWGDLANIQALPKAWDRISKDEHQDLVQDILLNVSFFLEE
Nature of the assay: co-IP; Flag-HA-AIRIM (wild type or variant) transiently expressed in HEK293T for 48 h; whole-cell lysate in 100 mM NaCl, 50 mM Tris-HCl pH 7.4, 0.2% NP-40, 10% glycerol, 1 mM MgCl2, 1 mM DTT with Benzonase; anti-Flag M2-agarose 3 h at 4 °C, Flag peptide elution, western blot for AFG2A, AFG2B, CINP, POLD3. (In general: In western blotting, separated proteins are transferred to a membrane and probed.)

B1: AFG2 AAA ATPase Homolog B (AFG2B) (protein, UniProt Q9BVQ7 1-753)
chain: MAPDSDPFPEGPLLKLLPLDARDRGTQRCRLGPAALHALGARLGSAVKISLPDGGSCLCTAWPRRDGADGFVQLDPLCASPGAAVGASRSRRSLSLNRLLLVPCPPLRRVAVWPVLRERAGAPGARNTAAVLEAAQELLRNRPISLGHVVVAPPGAPGLVAALHIVGGTPSPDPAGLVTPRTRVSLGGEPPSEAQPQPEVPLGGLSEAADSLRELLRLPLRYPRALTALGLAVPRGVLLAGPPGVGKTQLVRAVAREAGAELLAVSAPALQGSRPGETEENVRRVFQRARELASRGPSLLFLDEMDALCPQRGSRAPESRVVAQVLTLLDGASGDREVVVVGATNRPDALDPALRRPGRFDREVVIGTPTLKQRKEILQVITSKMPISSHVDLGLLAEMTVGYVGADLTALCREAAMHALLHSEKNQDNPVIDEIDFLEAFKNIQPSSFRSVIGLMDIKPVDWEEIGGLEDVKLKLKQSIEWPLKFPWEFVRMGLTQPKGVLLYGPPGCAKTTLVRALATSCHCSFVSVSGADLFSPFVGDSEKVLSQIFRQARASTPAILFLDEIDSILGARSASKTGCDVQERVLSVLLNELDGVGLKTIERRGSKSSQQEFQEVFNRSVMIIAATNRPDVLDTALLRPGRLDKIIYIPPPDHKGRLSILKVCTKTMPIGPDVSLENLAAETCFFSGADLRNLCTEAALLALQENGLDATTVKQEHFLKSLKTVKPSLSCKDLALYENLFKKEGFSNVEGI
Turning to B1, the binding entry is “binds”.

B2: AFG2 AAA ATPase Homolog A (AFG2A) (protein, UniProt Q8NB90 1-893)
chain: MSSKKNRKRLNQSAENGSSLPSAASSCAEARAPSAGSDFAATSGTLTVTNLLEKVDDKIPKTFQNSLIHLGLNTMKSANICIGRPVLLTSLNGKQEVYTAWPMAGFPGGKVGLSEMAQKNVGVRPGDAIQVQPLVGAVLQAEEMDVALSDKDMEINEEELTGCILRKLDGKIVLPGNFLYCTFYGRPYKLQVLRVKGADGMILGGPQSDSDTDAQRMAFEQSSMETSSLELSLQLSQLDLEDTQIPTSRSTPYKPIDDRITNKASDVLLDVTQSPGDGSGLMLEEVTGLKCNFESAREGNEQLTEEERLLKFSIGAKCNTDTFYFISSTTRVNFTEIDKNSKEQDNQFKVTYDMIGGLSSQLKAIREIIELPLKQPELFKSYGIPAPRGVLLYGPPGTGKTMIARAVANEVGAYVSVINGPEIISKFYGETEAKLRQIFAEATLRHPSIIFIDELDALCPKREGAQNEVEKRVVASLLTLMDGIGSEVSEGQVLVLGATNRPHALDAALRRPGRFDKEIEIGVPNAQDRLDILQKLLRRVPHLLTEAELLQLANSAHGYVGADLKVLCNEAGLCALRRILKKQPNLPDVKVAGLVKITLKDFLQAMNDIRPSAMREIAIDVPNVSWSDIGGLESIKLKLEQAVEWPLKHPESFIRMGIQPPKGVLLYGPPGCSKTMIAKALANESGLNFLAIKGPELMNKYVGESERAVRETFRKARAVAPSIIFFDELDALAVERGSSLGAGNVADRVLAQLLTEMDGIEQLKDVTILAATNRPDRIDKALMRPGRIDRIIYVPLPDAATRREIFKLQFHSMPVSNEVDLDELILQTDAYSGAEIVAVCREAALLALEEDIQANLIMKRHFTQALSTVTPRIPESLRRFYEDYQEKSGLHTL
In the case of B2, the binding result is reported as “binds”.

B3: Cyclin-Dependent Kinase 2 Interacting Protein (CINP) (protein, UniProt Q9BW66 1-212)
chain: MEAKTLGTVTPRKPVLSVSARKIKDNAADWHNLILKWETLNDAGFTTANNIANLKISLLNKDKIELDSSSPASKENEEKVCLEYNEELEKLCEELQATLDGLTKIQVKMEKLSSTTKGICELENYHYGEESKRPPLFHTWPTTHFYEVSHKLLEMYRKELLLKRTVAKELAHTGDPDLTLSYLSMWLHQPYVESDSRLHLESMLLETGHRAL
With B3, the binding result is listed as “binds”.
